US11053205B2, “Phenazine derivatives as antimicrobial agents” (University of Florida Research Foundation, Incorporated, priority 2017, dated 2021)
Some of these results come from one statement about several compounds together. For some assays here: For at least one compound, name, drawing or mass did not settle the structure.

Tests used:
[1] = test system: MRSA BAA-1707; test: MIC, broth microdilution (CLSI); conditions: 16 to 18 hours at 37° C.; 0.10 = lowest concentration tested
[2] = test system: MRSE 35984; test: MIC, broth microdilution (CLSI); conditions: 16 to 18 hours at 37° C.
[3] = test system: VRE 700221; test: MIC, broth microdilution (CLSI); conditions: 16 to 18 hours at 37° C.
[4] = test system: MRSA BAA-1707 biofilms; test: Calgary Biofilm Device (CBD) assay, MBC/MBEC; conditions: biofilm eradication

Question: With Cc1ccc2nc3c(Br)cc(Br)c(O)c3nc2c1C [57A] as the molecule, how does the “MRSA BAA-1707 MIC” value [1] read?
Answer: The value was over 100 µM.

Question: What about the “MRSE 35984 MIC” value [2] of the same molecule?
Answer: Its value is over 100 µM.

Question: And the “VRE 700221 MIC” value [3]?
Answer: The value was over 100 µM.

Question: Which results are given for CCc1cccc2nc3c(Br)cc(Br)c(O)c3nc12 [58A]?
Answer: MRSA BAA-1707 MIC [1]: > 100 µM; MRSE 35984 MIC [2]: > 100 µM; VRE 700221 MIC [3]: > 100 µM

Question: Which “MRSA BAA-1707 MIC” value [1] does the source give for Oc1c(Br)cc(Br)c2nc3cc(Oc4ccccc4)ccc3nc12 [63A] here?
Answer: The value was under 0.1 µM.

Question: How did the “MRSA BAA-1707 MBEC” value [4] turn out when CC(=O)NC[C@H]1CN(c2ccc(N3CCOCC3)c(F)c2)C(=O)O1 [linezolid, reference compound] was run?
Answer: Its value is > 2,000 μM.
